Data from paper PMC12900774.
Results are given in words; binding and its absence hold for the method and conditions named. Binding seen in cells or lysates may run through a third protein. Some results given as binding are weak or reduced against the parent protein; the word gives no strength.

Protein sequences, listed by entry. Tags and fused reporters are not part of them.
UniProt Q01844: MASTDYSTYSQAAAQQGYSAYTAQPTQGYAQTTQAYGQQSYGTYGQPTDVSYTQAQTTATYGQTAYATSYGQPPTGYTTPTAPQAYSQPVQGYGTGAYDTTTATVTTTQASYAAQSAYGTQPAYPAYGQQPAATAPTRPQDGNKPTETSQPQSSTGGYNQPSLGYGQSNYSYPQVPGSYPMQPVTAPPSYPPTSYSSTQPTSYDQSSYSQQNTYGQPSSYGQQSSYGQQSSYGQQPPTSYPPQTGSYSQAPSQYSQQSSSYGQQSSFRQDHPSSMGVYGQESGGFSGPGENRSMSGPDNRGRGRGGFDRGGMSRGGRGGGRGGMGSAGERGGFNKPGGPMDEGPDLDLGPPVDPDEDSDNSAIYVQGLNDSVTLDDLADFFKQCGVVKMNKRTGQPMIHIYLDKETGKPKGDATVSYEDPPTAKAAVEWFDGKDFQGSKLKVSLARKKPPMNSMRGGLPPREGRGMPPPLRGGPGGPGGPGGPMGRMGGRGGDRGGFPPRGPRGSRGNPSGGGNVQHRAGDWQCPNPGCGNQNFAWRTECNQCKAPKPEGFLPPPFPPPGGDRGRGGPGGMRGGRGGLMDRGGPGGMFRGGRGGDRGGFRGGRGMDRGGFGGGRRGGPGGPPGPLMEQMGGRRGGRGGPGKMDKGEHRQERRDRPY

B1: DROSHA (protein, UniProt Q9NRR4 1-1374)
chain: MMQGNTCHRMSFHPGRGCPRGRGGHGARPSAPSFRPQNLRLLHPQQPPVQYQYEPPSAPSTTFSNSPAPNFLPPRPDFVPFPPPMPPSAQGPLPPCPIRPPFPNHQMRHPFPVPPCFPPMPPPMPCPNNPPVPGAPPGQGTFPFMMPPPSMPHPPPPPVMPQQVNYQYPPGYSHHNFPPPSFNSFQNNPSSFLPSANNSSSPHFRHLPPYPLPKAPSERRSPERLKHYDDHRHRDHSHGRGERHRSLDRRERGRSPDRRRQDSRYRSDYDRGRTPSRHRSYERSRERERERHRHRDNRRSPSLERSYKKEYKRSGRSYGLSVVPEPAGCTPELPGEIIKNTDSWAPPLEIVNHRSPSREKKRARWEEEKDRWSDNQSSGKDKNYTSIKEKEPEETMPDKNEEEEEELLKPVWIRCTHSENYYSSDPMDQVGDSTVVGTSRLRDLYDKFEEELGSRQEKAKAARPPWEPPKTKLDEDLESSSESECESDEDSTCSSSSDSEVFDVIAEIKRKKAHPDRLHDELWYNDPGQMNDGPLCKCSAKARRTGIRHSIYPGEEAIKPCRPMTNNAGRLFHYRITVSPPTNFLTDRPTVIEYDDHEYIFEGFSMFAHAPLTNIPLCKVIRFNIDYTIHFIEEMMPENFCVKGLELFSLFLFRDILELYDWNLKGPLFEDSPPCCPRFHFMPRFVRFLPDGGKEVLSMHQILLYLLRCSKALVPEEEIANMLQWEELEWQKYAEECKGMIVTNPGTKPSSVRIDQLDREQFNPDVITFPIIVHFGIRPAQLSYAGDPQYQKLWKSYVKLRHLLANSPKVKQTDKQKLAQREEALQKIRQKNTMRREVTVELSSQGFWKTGIRSDVCQHAMMLPVLTHHIRYHQCLMHLDKLIGYTFQDRCLLQLAMTHPSHHLNFGMNPDHARNSLSNCGIRQPKYGDRKVHHMHMRKKGINTLINIMSRLGQDDPTPSRINHNERLEFLGDAVVEFLTSVHLYYLFPSLEEGGLATYRTAIVQNQHLAMLAKKLELDRFMLYAHGPDLCRESDLRHAMANCFEALIGAVYLEGSLEEAKQLFGRLLFNDPDLREVWLNYPLHPLQLQEPNTDRQLIETSPVLQKLTEFEEAIGVIFTHVRLLARAFTLRTVGFNHLTLGHNQRMEFLGDSIMQLVATEYLFIHFPDHHEGHLTLLRSSLVNNRTQAKVAEELGMQEYAITNDKTKRPVALRTKTLADLLESFIAALYIDKDLEYVHTFMNVCFFPRLKEFILNQDWNDPKSQLQQCCLTLRTEGKEPDIPLYKTLQTVGPSHARTYTVAVYFKGERIGCGKGPSIQQAEMGAAMDALEKYNFPQMAHQKRFIERKYRQELKEMRWEREHQEREPDETEDIKK
B2: DGCR8 (protein, UniProt Q8WYQ5 1-773)
chain: METDESPSPLPCGPAGEAVMESRARPFQALPREQSPPPPLQTSSGAEVMDVGSGGDGQSELPAEDPFNFYGASLLSKGSFSKGRLLIDPNCSGHSPRTARHAPAVRKFSPDLKLLKDVKISVSFTESCRSKDRKVLYTGAERDVRAECGLLLSPVSGDVHACPFGGSVGDGVGIGGESADKKDEENELDQEKRVEYAVLDELEDFTDNLELDEEGAGGFTAKAIVQRDRVDEEALNFPYEDDFDNDVDALLEEGLCAPKKRRTEEKYGGDSDHPSDGETSVQPMMTKIKTVLKSRGRPPTEPLPDGWIMTFHNSGVPVYLHRESRVVTWSRPYFLGTGSIRKHDPPLSSIPCLHYKKMKDNEEREQSSDLTPSGDVSPVKPLSRSAELEFPLDEPDSMGADPGPPDEKDPLGAEAAPGALGQVKAKVEVCKDESVDLEEFRSYLEKRFDFEQVTVKKFRTWAERRQFNREMKRKQAESERPILPANQKLITLSVQDAPTKKEFVINPNGKSEVCILHEYMQRVLKVRPVYNFFECENPSEPFGASVTIDGVTYGSGTASSKKLAKNKAARATLEILIPDFVKQTSEEKPKDSEELEYFNHISIEDSRVYELTSKAGLLSPYQILHECLKRNHGMGDTSIKFEVVPGKNQKSEYVMACGKHTVRGWCKNKRVGKQLASQKILQLLHPHVKNWGSLLRMYGRESSKMVKQETSDKSVIELQQYAKKNKPNLHILSKLQEEMKRLAEEREETRKKPKMSIVASAQPGGEPLCTVDV

Molecular target: Ewing Sarcoma breakpoint region 1/EWS RNA binding protein 1 (EWSR1) (human (endogenous in NCM460)) (UniProt Q01844)
Experiment: co-IP; lysate in IP buffer (50 mM Tris-HCl pH 7.4, 150 mM NaCl, 1% NP-40), anti-EWSR1 antibody or normal IgG overnight at 4°C, protein A/G magnetic beads, western blot; cells with or without overexpression of 5'-tiRNA-Lys

| Binder | binding |
| --- | --- |
| B1 | binds |
| B2 | binds |
